Source: paper doi:10.1101/2021.11.10.468004
No constants are given. Whether binding was seen depends on the method and setting. Binding calls can cover weak binding; strength is not graded here.

Target: T1, Nup85 (X. laevis (endogenous in oocytes)) (UniProt Q68FJ0)
T1 sequence: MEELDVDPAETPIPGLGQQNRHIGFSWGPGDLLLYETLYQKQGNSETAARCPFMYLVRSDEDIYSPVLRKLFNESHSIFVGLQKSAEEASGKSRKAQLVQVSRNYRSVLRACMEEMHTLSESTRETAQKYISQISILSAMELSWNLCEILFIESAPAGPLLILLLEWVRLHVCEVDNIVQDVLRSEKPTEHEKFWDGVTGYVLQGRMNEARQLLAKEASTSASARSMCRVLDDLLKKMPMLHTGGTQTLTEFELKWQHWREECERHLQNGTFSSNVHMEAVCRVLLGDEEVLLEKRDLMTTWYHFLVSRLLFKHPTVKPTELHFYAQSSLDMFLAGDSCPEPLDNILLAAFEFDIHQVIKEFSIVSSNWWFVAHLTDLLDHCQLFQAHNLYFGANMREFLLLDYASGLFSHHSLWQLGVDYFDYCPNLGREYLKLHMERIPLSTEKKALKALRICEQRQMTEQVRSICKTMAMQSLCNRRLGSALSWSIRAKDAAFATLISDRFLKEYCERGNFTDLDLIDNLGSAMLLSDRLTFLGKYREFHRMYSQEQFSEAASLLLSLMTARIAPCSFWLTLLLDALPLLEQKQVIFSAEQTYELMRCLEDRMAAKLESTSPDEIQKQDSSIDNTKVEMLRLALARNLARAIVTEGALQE
Assay: cryo-EM structure

In the case of “Nup205 (X. laevis (endogenous in oocytes))”, the binding is reported as “binds”.
